Experimental data from PMC11154708.
Results are given in words; binding and its absence hold for the method and conditions named. For some assays here: In cells and extracts the contact can be indirect. Some results given as binding are weak or reduced against the parent protein; the word gives no strength.

By UniProt entry, the sequences of proteins in these tests, tags left out.
UniProt P25454: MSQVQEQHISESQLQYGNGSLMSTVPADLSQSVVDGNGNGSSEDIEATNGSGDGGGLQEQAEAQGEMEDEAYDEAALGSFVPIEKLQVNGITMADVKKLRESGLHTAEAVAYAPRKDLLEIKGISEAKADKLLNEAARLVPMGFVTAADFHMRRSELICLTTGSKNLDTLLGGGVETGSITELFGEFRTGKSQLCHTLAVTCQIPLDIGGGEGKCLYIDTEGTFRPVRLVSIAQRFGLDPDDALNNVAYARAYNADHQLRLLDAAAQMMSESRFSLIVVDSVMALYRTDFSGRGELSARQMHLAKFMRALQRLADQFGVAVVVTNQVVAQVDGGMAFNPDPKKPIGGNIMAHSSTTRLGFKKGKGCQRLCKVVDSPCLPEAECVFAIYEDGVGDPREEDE
UniProt Q12449: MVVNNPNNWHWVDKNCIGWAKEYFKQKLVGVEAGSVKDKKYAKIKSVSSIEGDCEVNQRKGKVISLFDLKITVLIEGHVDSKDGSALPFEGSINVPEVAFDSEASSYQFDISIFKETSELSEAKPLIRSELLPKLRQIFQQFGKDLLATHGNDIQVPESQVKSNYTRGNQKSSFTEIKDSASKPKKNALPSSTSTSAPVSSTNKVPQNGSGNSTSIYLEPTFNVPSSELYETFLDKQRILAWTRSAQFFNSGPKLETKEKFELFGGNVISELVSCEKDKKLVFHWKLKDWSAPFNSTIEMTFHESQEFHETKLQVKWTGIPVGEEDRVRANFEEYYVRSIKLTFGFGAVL

What was measured:
Rad51 (S. cerevisiae) = Rad51 (S. cerevisiae) (UniProt P25454); experiment: co-IP; Rad51 immunoprecipitated with anti-Rad51 antibody from yeast lysates (Rad51 overexpressed from a plasmid), IP fraction blotted for Hsp82 and Aha1; strains WT, hda1Δ, aha1Δ and hsp82 mutant strains (K27Q, K27R, K274Q, K274R, K178R); rad51Δ as negative control; blots quantified with Image J
[1] = biological target: Rad51, yeast two-hybrid fusion (S. cerevisiae) (UniProt P25454); experiment: two-hybrid; bait (pGBDUC1) and prey (pGADC1) vectors in PJ69-4A; serial dilutions spotted on SC-Leu-Ura- and SC-Leu-Ura-His- (HIS3 reporter), 30 °C, 4 days

| Substance | binding (Rad51 (S. cerevisiae)) | binding [1] |
| --- | --- | --- |
| Aha1 (from UniProt Q12449 1-350) | binds |  |
| Aha1, yeast two-hybrid fusion (from UniProt Q12449 1-350) |  | binds weakly |
